Hit rate of the full screen: of about 59,000 compounds, about 35 (0.06%) were called active. Inconclusive results, whose numbers are uncertain, are shown with a selection of clear calls. No stated cut-off is given here; in the data, active means max dye-equivalent concentration above about 10 nM; inconclusive means between about 1.1 nM and that limit; inactive means weaker than that.
Test: qHTS Assay for Spectroscopic Profiling in Texas Red Spectral Region
Conditions: Compound fluorescence, Texas Red channel, 547/618 nm; active compounds read high
In short: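 Spectral interference profiling: each compound concentration's relative fluorescence, read with a 547 nm excitation and 618 nm emission filter pair, was normalized to a per-plate Texas Red standard curve.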

| Structure (SMILES) | max dye-equivalent concentration | outcome |
| --- | --- | --- |
| Cc1nnc(NC(=O)c2ccc3ccccc3c2)o1 | inconclusive: 2.1 nM |  |
| O=C1CC(C(=O)N(c2cccc(F)c2)C(C(=O)NC2CCCC2)c2ccccn2)CS1 (stereo unspecified) | inconclusive: 1.3 nM |  |
| COc1cccc(-c2nnc(Nc3nc4c(F)cccc4s3)o2)c1 | inconclusive: 1.3 nM |  |
| O=C1c2cccnc2C(=O)N1Cc1ccc(F)cc1 | inactive |  |
| CC(C)(C(=O)O)c1ccc([C@@H](O)CCCN2CCC(C(O)(c3ccccc3)c3ccccc3)CC2)cc1 | inconclusive: 1.5 nM |  |
| CCCC(c1nnnn1CCc1ccccc1)N1CCN(C(=O)c2ccco2)CC1 (stereo unspecified) | inconclusive: 1.8 nM |  |
| COc1ccccc1C(=O)Nc1c2c(nn1-c1cccc(C)c1C)CS(=O)(=O)C2 | inconclusive: 1.2 nM |  |
| COc1ccc(-c2nnc(SCc3ncc(-c4ccccc4)o3)o2)cc1 | inconclusive: 1.2 nM |  |
| COC(=O)CSc1nnc(-c2ccccc2OC)o1 | inconclusive: 1.3 nM |  |
| COc1ccc2cc(CN(CCc3ccccc3)Cc3nnnn3Cc3ccco3)c(=O)[nH]c2c1 | inconclusive: 2.7 nM |  |
| CCOC(=O)c1cc(CC)sc1NC(=O)Cc1ccsc1 | inconclusive: 1.5 nM |  |
| COc1ccc(OC)c(C(c2nnnn2CCC(C)C)N2CCN(C(=O)c3ccco3)CC2)c1 (stereo unspecified) | inconclusive: 1.3 nM |  |
| O=C(Nc1cnccn1)C1c2ccccc2Oc2ccccc21 | inconclusive: 1.2 nM |  |
| CCC(=O)N1CCN(c2cc(C)ccc2C)CC1 | inconclusive: 3.4 nM |  |
| CN(C)S(=O)(=O)Nc1ccc(Oc2ccccc2)cc1 | inconclusive: 1.9 nM |  |
| CCn1c(CSc2nnc(-c3ccoc3C)n2C)nc2cc(S(=O)(=O)N(C)C)ccc21 | inconclusive: 1.4 nM |  |
| Cc1ccc(C(=O)Nc2ccccc2N2CCN(C(=O)C(C)C)CC2)cc1 | inconclusive: 2.3 nM |  |
| CCN(CC)CCOC(=O)C1(C2CCCCC2)CCCCC1 | inconclusive: 1.3 nM |  |
| Cc1cc(C)n(C(=O)c2ccc(NC(=O)C3COc4ccccc4O3)cc2)n1 (stereo unspecified) | inconclusive: 1.3 nM |  |
| CCCOc1ccc(-c2nnc(-c3ccco3)o2)cc1 | inconclusive: 1.4 nM |  |
| Cn1c(=O)c(C#N)c(-c2ccccc2)n2cnnc12 | inconclusive: 2 nM |  |
| CC1CCCCC12NC(=O)N(Cn1nnc3ccccc3c1=O)C2=O (stereo unspecified) | inconclusive: 1.1 nM |  |

Reprinted from the results shown, 16 compounds:

| Structure (SMILES) | max dye-equivalent concentration | outcome |
| --- | --- | --- |
| O=C1c2cccnc2C(=O)N1Cc1ccc(F)cc1 | inactive |  |
| CC(C)(C(=O)O)c1ccc([C@@H](O)CCCN2CCC(C(O)(c3ccccc3)c3ccccc3)CC2)cc1 | inconclusive: 1.5 nM |  |
| CCCC(c1nnnn1CCc1ccccc1)N1CCN(C(=O)c2ccco2)CC1 (stereo unspecified) | inconclusive: 1.8 nM |  |
| COc1ccccc1C(=O)Nc1c2c(nn1-c1cccc(C)c1C)CS(=O)(=O)C2 | inconclusive: 1.2 nM |  |
| COc1ccc(-c2nnc(SCc3ncc(-c4ccccc4)o3)o2)cc1 | inconclusive: 1.2 nM |  |
| COC(=O)CSc1nnc(-c2ccccc2OC)o1 | inconclusive: 1.3 nM |  |
| COc1ccc2cc(CN(CCc3ccccc3)Cc3nnnn3Cc3ccco3)c(=O)[nH]c2c1 | inconclusive: 2.7 nM |  |
| CCOC(=O)c1cc(CC)sc1NC(=O)Cc1ccsc1 | inconclusive: 1.5 nM |  |
| COc1ccc(OC)c(C(c2nnnn2CCC(C)C)N2CCN(C(=O)c3ccco3)CC2)c1 (stereo unspecified) | inconclusive: 1.3 nM |  |
| O=C(Nc1cnccn1)C1c2ccccc2Oc2ccccc21 | inconclusive: 1.2 nM |  |
| CCC(=O)N1CCN(c2cc(C)ccc2C)CC1 | inconclusive: 3.4 nM |  |
| CN(C)S(=O)(=O)Nc1ccc(Oc2ccccc2)cc1 | inconclusive: 1.9 nM |  |
| CCn1c(CSc2nnc(-c3ccoc3C)n2C)nc2cc(S(=O)(=O)N(C)C)ccc21 | inconclusive: 1.4 nM |  |
| Cc1ccc(C(=O)Nc2ccccc2N2CCN(C(=O)C(C)C)CC2)cc1 | inconclusive: 2.3 nM |  |
| CCN(CC)CCOC(=O)C1(C2CCCCC2)CCCCC1 | inconclusive: 1.3 nM |  |
| Cc1cc(C)n(C(=O)c2ccc(NC(=O)C3COc4ccccc4O3)cc2)n1 (stereo unspecified) | inconclusive: 1.3 nM |  |

Carrying on.

| Structure (SMILES) | max dye-equivalent concentration | outcome |
| --- | --- | --- |
| COC(=O)c1c(C)cc(C)n2c1nc1ccccc12 | inconclusive: 1.2 nM |  |
| COc1cc2c(C#N)c(N3CCN(c4ccccc4OC)CC3)nc(N)c2c(N)n1 | inconclusive: 1.2 nM |  |
| CSc1cccc(NC(=O)c2c(Cl)cnn2C)c1 | inconclusive: 1.2 nM |  |
| CC(=O)Oc1ccc(NC(=O)C2CCCCC2)c(C(=O)O)c1 | inconclusive: 1.5 nM |  |
| O=C(Nc1ccc(F)cc1)N(Cc1nnc2n1CCCCC2)c1ccccc1 | inconclusive: 2.9 nM |  |
| Cc1cc2c(c(=O)o1)C(C13C=CC(CC1)C3)C(C#N)=C(N)O2 (stereo unspecified) | inactive |  |
| COc1ccc(-c2noc(CCCOc3ccccc3)n2)cc1OC | inconclusive: 2.1 nM |  |
| OCc1ccncc1.OCc1ccncc1.[Cl][Pt]([Cl])([Cl])[Cl] | inactive |  |
| CCCCc1c(O)nc(SCC(=O)Nc2ccc3c(c2)CCC3)[nH]c1=O | inconclusive: 1.9 nM |  |
| C[N+]1(C)CCC(OC(=O)C(c2ccccc2)c2ccccc2)CC1 | inconclusive: 1.1 nM |  |
| CCN(CC)CCn1c2ccccc2c2nc(C)sc21 | inconclusive: 1.8 nM |  |
| CC(C(=O)c1ccccc1)n1c(N2CCOCC2)nc2c1c(=O)n(C)c(=O)n2C (stereo unspecified) | inconclusive: 1.6 nM |  |
| COCCc1ccc(OC[C@H](O)CNC(C)C)cc1 | inconclusive: 1.3 nM | inactive |
| Cc1ccc2cc(CN(CC3CCCO3)S(=O)(=O)c3ccc4c(c3)OCCO4)c(=O)[nH]c2c1C (stereo unspecified) | inconclusive: 1.2 nM |  |
| COc1cccc(-c2nc(NCCc3c[nH]c4ccc(OC)cc34)c3ccccc3n2)c1 | inconclusive: 1.4 nM |  |
| CCc1nnc(NC(=O)CSc2nnc(CNc3ccc(F)cc3)n2C2CCCCC2)s1 | inconclusive: 1.1 nM |  |
| Cc1cc(C)c(S(=O)(=O)Nc2ccc(O)cc2)cc1C | inconclusive: 1.6 nM |  |
| O=c1c2ccccc2oc2cc(O)c([C@@H]3COC[C@@H](CO)[C@@H](O)[C@@H](O)[C@H]3O)c(O)c12 | inactive |  |
| COCCn1c(=O)c(-c2cc(F)cc(F)c2)nc2cncnc21 | inactive |  |
| O=C(NCC(=O)N(c1ccc2c(c1)OCCO2)C(C(=O)NC1CCCC1)c1ccco1)c1ccco1 (stereo unspecified) | inconclusive: 1.5 nM |  |
| COc1ccc(Oc2ncc3ncc(=O)n(CCC#N)c3n2)cc1 | inactive |  |
| C=C(C)[C@H]1CC[C@]2(C(=O)O)CC[C@]3(C)[C@@H](CC[C@H]4[C@@]5(C)CC[C@@H](O)C(C)(C)[C@@H]5CC[C@@]43C)[C@H]12 | inconclusive: 1.4 nM |  |

| Structure (SMILES) | max dye-equivalent concentration | outcome |
| --- | --- | --- |
| CCOc1ccc2nc(NS(=O)(=O)c3ccc4c(c3)n(C)c(=O)n4C)sc2c1 | inactive |  |
| COc1cccc(-c2nnn(CC(=O)NC3CCCC3)n2)c1OC | inconclusive: 1.6 nM |  |
| COc1ccc(NC(=O)C2CCCCN2S(=O)(=O)c2ccc(F)cc2)c(OC)c1 (stereo unspecified) | inconclusive: 1.4 nM |  |
| COC(=O)N1CCN(c2ccc(C(C)=O)cc2)CC1 | inconclusive: 1.3 nM |  |
| Cc1ccccc1-c1nnn(CC(=O)NCc2ccc3c(c2)OCO3)n1 | inconclusive: 1.2 nM |  |
| COc1ccc2c(c1)Cc1cc(N=[N+]([O-])c3ccc4c(c3)Cc3cc(OC)ccc3-4)ccc1-2 | inactive |  |
| O=C(Nc1nnc(Cc2ccccc2)s1)c1cccs1 | inconclusive: 1.2 nM |  |
| CCOc1ccc(C(=O)N(CN2CCCC2=O)c2ccc(C)cc2)cc1 | inconclusive: 1.3 nM |  |
| Cc1ccc2[nH]c3c(c2c1)CN(C(=O)CN1CCN(c2ccccc2F)CC1)CC3 | inconclusive: 2.5 nM |  |
| O=C(CCNS(=O)(=O)c1cccc2nsnc12)N1CCN(c2ccccn2)CC1 | inconclusive: 1.6 nM |  |
| O=c1cc2n(c(=O)[nH]1)CCC1=C2CCCC1 | inconclusive: 1.6 nM |  |
| CCCCC(C(=O)O)C(C)CC(=O)Nc1ccn(-c2ccccc2)n1 (stereo unspecified) | inconclusive: 2.8 nM |  |
| NCCCCCc1nnc(SCC(=O)Nc2cccc(Cl)c2)o1 | inconclusive: 2.2 nM |  |
| Cc1ccc(-n2nnnc2SCC(=O)Nc2ccc3c(c2)COC3=O)cc1C | inconclusive: 1.1 nM |  |
| Cc1ccc(NC2=NCC(=O)N2c2ccc3c(c2)OCCO3)c(C)c1 | inconclusive: 1.2 nM |  |
| O=C(CN(Cc1ccc(F)cc1)C(=O)CCC(=O)Nc1ccccn1)NCc1ccco1 | inconclusive: 1.3 nM |  |
| Cn1c(=O)n(CC(=O)Nc2ccc(F)cc2)c2ccccc21 | inconclusive: 1.3 nM |  |
| COc1ccc(N/C=C2/CCCCC2=O)cc1 | inconclusive: 1.5 nM |  |
| CN(Cc1cccc(F)c1)C(=O)c1ccc(S(=O)(=O)C(F)F)cc1 | inconclusive: 1.3 nM |  |
| CC(C)OC(=O)C(C#N)c1nc2ccccc2nc1N1CCN(Cc2ccc3c(c2)OCO3)CC1 (stereo unspecified) | inactive |  |
| CCOC(=O)c1cccc(NC(=O)Cn2c(CC(=O)N3CCCC3)nc3ccccc32)c1 | inconclusive: 1.3 nM |  |
| CCOC(=O)c1ccccc1NC(=O)CN1C(=O)CCS(=O)(=O)c2ccccc21 | inconclusive: 1.2 nM |  |

| Structure (SMILES) | max dye-equivalent concentration | outcome |
| --- | --- | --- |
| CCOC(=O)CCC(=O)OCC(=O)NC(C)C1CC2CCC1C2 (stereo unspecified) | inconclusive: 1.4 nM |  |
| O=C(Oc1ccccc1)c1cccc(COC(=O)c2cnccn2)c1 | inconclusive: 1.9 nM |  |
| Cc1cc(C)n(C(=O)CSc2nnc(SCC(=O)n3nc(C)cc3C)s2)n1 | inconclusive: 2.7 nM |  |
| COc1cc(C(=O)Nc2ccc3c(c2)OCCO3)ccc1OC(C)C | inconclusive: 1.9 nM |  |
| COc1ccccc1N(CC(=O)NC1CCCC1)C(=O)c1csnn1 | inconclusive: 1.3 nM |  |
| C[C@@H]1C[C@H](OC(=O)[C@@H](O)c2ccccc2)CC(C)(C)N1C | inactive |  |
| CC1=CC(=O)C2=C(C)CC[C@@H]3[C@H](OC(=O)[C@H]3C)[C@H]12 | inactive |  |
| COc1cccc(CNc2ccc(F)c(Cl)c2)c1O | inconclusive: 1.1 nM |  |
| CCOc1ccc2nc(NC(=O)CS(=O)(=O)c3ccccc3)sc2c1 | inconclusive: 1.1 nM |  |
| Cc1csc(=O)n1CCC(=O)O | inconclusive: 1.4 nM |  |
| O=C1CN(/N=C\c2ccc([N+](=O)[O-])o2)C(=O)N1 | inconclusive: 1.6 nM |  |
| COc1ccc(C2C3=C(CC(C)(C)CC3=O)Nc3c2c(=O)[nH]c(=O)n3Cc2ccccc2)cc1OC (stereo unspecified) | inactive |  |
| COc1ccccc1CC1(C)NC(=O)N(CC(=O)N2CCc3ccccc3C2)C1=O (stereo unspecified) | inconclusive: 2 nM |  |
| CCOC(=O)c1[nH]c(C)c(C(=O)NC2CCN(C(=O)OCC)CC2)c1C | inconclusive: 1.4 nM |  |
| CCOc1ccc(OCC)c(NC(=O)CSc2nc3cccnc3n2C)c1 | inconclusive: 2.7 nM |  |
| O=C(Cn1nnc(-c2cccs2)n1)N1CCc2ccccc2C1 | inconclusive: 3.6 nM |  |
| C/C(=C1\SC(N2CCOCC2)=NC1=O)c1ccc(C)cc1 | inconclusive: 2.8 nM |  |
| COCC(=O)N1CCC2(CCCN(C(c3ccccc3)c3ccccc3)C2)CC1 | inactive |  |
| Cc1ccc(NC(=O)CC2SC3=NCCN3C2=O)cc1 (stereo unspecified) | inconclusive: 1.1 nM |  |
